Experiment: NMR titration with monovalent cations in CD3OH
Assay type: physicochemical
Details: qualitative, from change in asymmetric : symmetric ratio

In the case of `CC(C)CC1C(=O)OC(Cc2ccccc2)C(=O)N(C)C(CC(C)C)C(=O)OC(C)C(=O)N(C)C(CC(C)C)C(=O)OC(Cc2ccccc2)C(=O)N(C)C(CC(C)C)C(=O)OC(C)C(=O)N1C` (stereo not shown) [PF1022A (1)], the “Order of cation affinities of the symmetric conformer” value is reported as “Cs^+ > K^+ > Na^+ > NH4^+”.
